Marks after values point to notes of the source that are not given here.
Legend:
[1] = R-Index by ranking sensory difference test of microencapsulated tributyrin in infant formula (Example 2); parameters: species or system human
[2] = R-index measure by rating method, microencapsulated and free TB in infant formula (Example 5); parameters: species or system human

CCCC(=O)OCC(COC(=O)CCC)OC(=O)CCC [Tributyrin, 1,3-di(butanoyloxy)propan-2-yl butanoate]
Estimated d′ value (degree of difference) ([1]; in infant formula vs noise): 1.24
Average R-Index ([1]; in infant formula vs noise (no tributyrin), 33 panelists, scores range 50 to 100): 80.5^A
Average individual R-index ([2]; individual judge R-index, ANOVA/LSD, 0.2 g TB/serving infant formula): 80.5^A***
Calculated R-index (pooled) ([2]; pooled, over 57.95% significantly different from control (n = 170, α = 0.01, two-tailed)): 80.6**

From US10098964B2, “Inclusion complexes and methods for making the same” (The Board of Trustees of the University of Illinois, priority 2015, dated 2018)
